# From patent US11485762B2, “Compositions and methods for inhibition of L-plastin activity in osteoclasts to reduce bone loss” (University of Maryland, Baltimore, priority 2017, dated 2022)
# B1: FL-LPL: HA-TAT fused full-length L-plastin protein (70-75 kDa), purified from bacterial expression vector pTAT-HA (protein, UniProt P13796 1-627, looked up)
# chain: MARGSVSDEEMMELREAFAKVDTDGNGYISFNELNDLFKAACLPLPGYRVREITENLMATGDLDQDGRISFDEFIKIFHGLKSTDVAKTFRKAINKKEGICAIGGTSEQSSVGTQHSYSEEEKYAFVNWINKALENDPDCRHVIPMNPNTNDLFNAVGDGIVLCKMINLSVPDTIDERTINKKKLTPFTIQENLNLALNSASAIGCHVVNIGAEDLKEGKPYLVLGLLWQVIKIGLFADIELSRNEALIALLREGESLEDLMKLSPEELLLRWANYHLENAGCNKIGNFSTDIKDSKAYYHLLEQVAPKGDEEGVPAVVIDMSGLREKDDIQRAECMLQQAERLGCRQFVTATDVVRGNPKLNLAFIANLFNRYPALHKPENQDIDWGALEGETREERTFRNWMNSLGVNPRVNHLYSDLSDALVIFQLYEKIKVPVDWNRVNKPPYPKLGGNMKKLENCNYAVELGKNQAKFSLVGIGGQDLNEGNRTLTLALIWQLMRRYTLNILEEIGGGQKVNDDIIVNWVNETLREAKKSSSISSFKDPKISTSLPVLDLIDAIQPGSINYDLLKTENLNDDEKLNNAKYAISMARKIGARVYALPEDLVEVNPKMVMTVFACLMGKGMKRV
# modifications: full-length HA-TAT tag
# notes: HA-TAT fused full-length L-plastin protein (70-75 kDa), purified from bacterial expression vector pTAT-HA
# Test system: osteoclasts
# Assay: Dose- and time-dependent uptake of TAT-fused FL-LPL by osteoclasts (HA immunoblot)
# Assay type: cell-based, mouse
molecule,measurement,setting,value
B1,dose of maximum uptake,HA immunoblot of osteoclast lysates,100 to 200 nM
same,transduced protein level reduced from,in osteoclasts,≥ 12 h
same,transduced protein stable for up to,in osteoclasts,6 to 8 h

# The amount applied is not stated for every result.
